Several values for one entry are separate records, joined by “and”; a condition that tells them apart may be missing. Equal entries are not always repeated. Among all 260,000 compounds or so, about 1,500 (0.58%) were called active. Inconclusive results, whose numbers are uncertain, are shown with a selection of clear calls.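 Rule for the calls: active = inhibition above a set limit at one or more doses, reproduced on every date tested; inconclusive = results disagree between test dates, or hit never tested in dose response; inactive = the rest.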
target: Virion infectivity factor (Human immunodeficiency virus type 1 group M subtype B (isolate BH10)) + Virion infectivity factor (Human immunodeficiency virus type 1 group M subtype B (isolate BRU/LAI)) + Virion infectivity factor (Human immunodeficiency virus type 1 group M subtype B (isolate PCV12)) + Virion infectivity factor (Human immunodeficiency virus type 1 group M subtype B (isolate HXB2)) + DNA dC->dU-editing enzyme APOBEC-3G (Homo sapiens) (UniProt P69720+P69721+P69722+P69723+Q9HC16); experiment: inhibitors of Vif binding to APOBEC3G peptide, primary screen, biochemical, TR-FRET, GST-Vif 1-94, biotin-A3G peptide, dose response retest (AID 1117319); conditions: active compounds read high;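 note: Vif residues 1-94 fused to GST binding biotinylated APOBEC3G peptide 110-148; 0% = full assay without inhibitor and 100% = GST in place of GST-Vif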

By UniProt entry, the sequences of proteins in these tests, tags left out. Where a name states a change or a piece, a line headed by the entry shows the natural chain unless it says otherwise.
UniProt P69720: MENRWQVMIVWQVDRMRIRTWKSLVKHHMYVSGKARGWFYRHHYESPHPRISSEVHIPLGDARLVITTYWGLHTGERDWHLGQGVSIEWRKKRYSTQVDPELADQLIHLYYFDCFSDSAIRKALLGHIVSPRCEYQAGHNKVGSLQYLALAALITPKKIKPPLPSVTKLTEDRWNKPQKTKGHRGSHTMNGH
UniProt P69721: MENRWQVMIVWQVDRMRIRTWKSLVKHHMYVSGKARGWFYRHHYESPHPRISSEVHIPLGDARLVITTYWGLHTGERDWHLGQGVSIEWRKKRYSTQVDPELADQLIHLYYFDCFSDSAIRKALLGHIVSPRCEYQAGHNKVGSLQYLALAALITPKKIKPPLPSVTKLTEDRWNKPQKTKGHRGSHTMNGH
UniProt P69722: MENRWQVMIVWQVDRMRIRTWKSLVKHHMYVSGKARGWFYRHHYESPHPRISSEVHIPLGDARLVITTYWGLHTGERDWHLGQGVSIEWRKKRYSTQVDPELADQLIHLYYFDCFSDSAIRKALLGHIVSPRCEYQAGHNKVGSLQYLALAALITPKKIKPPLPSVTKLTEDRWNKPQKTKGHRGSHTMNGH
UniProt P69723: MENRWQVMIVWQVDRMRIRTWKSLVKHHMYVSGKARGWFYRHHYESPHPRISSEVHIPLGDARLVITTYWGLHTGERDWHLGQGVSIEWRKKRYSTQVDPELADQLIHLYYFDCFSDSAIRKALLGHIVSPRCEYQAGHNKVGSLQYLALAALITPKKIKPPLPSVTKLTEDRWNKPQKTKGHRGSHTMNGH
UniProt Q9HC16: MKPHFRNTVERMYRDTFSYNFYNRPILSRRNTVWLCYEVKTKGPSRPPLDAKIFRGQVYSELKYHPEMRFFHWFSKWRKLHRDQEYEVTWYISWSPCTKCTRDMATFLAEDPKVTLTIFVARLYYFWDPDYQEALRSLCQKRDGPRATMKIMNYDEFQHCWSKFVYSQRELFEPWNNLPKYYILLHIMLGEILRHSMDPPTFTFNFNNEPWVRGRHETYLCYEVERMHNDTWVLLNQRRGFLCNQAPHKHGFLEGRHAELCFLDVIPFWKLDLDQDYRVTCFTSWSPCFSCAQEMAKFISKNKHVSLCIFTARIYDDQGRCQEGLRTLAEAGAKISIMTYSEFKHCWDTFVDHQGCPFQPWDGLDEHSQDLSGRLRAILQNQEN

| SMILES | inhibition |
| --- | --- |
| COc1cc(/C=C2/CC/C(=C/c3ccc(O)c(OC)c3)C2=O)ccc1O | inactive: 32.3% |
| CCOc1ccc(C2OC34CCCCC3C(C#N)(C#N)C2(C#N)C(=N)O4)cc1OC (stereo not drawn) | inconclusive: 31.1% |
| CCOC(=O)C1=C(C)OC(N)=C(C#N)C1c1cc2c(cc1[N+](=O)[O-])OCO2 (stereo not drawn) | inconclusive: 49.1% |
| CCC(NC(=O)c1ccccc1NC(=O)c1ccco1)C(=O)NNC(=O)c1ccc(OC)cc1 (stereo not drawn) | inconclusive: 36.8% |
| CN(C)S(=O)(=O)c1cc(NC(=O)[C@H](Cc2ccccc2)N2C(=O)c3ccccc3C2=O)ccc1Cl | inactive: 15.5% |
| CCN(CC)S(=O)(=O)c1cc(C(=O)OCC(=O)NC(=O)c2cccn2C)ccc1C | inconclusive: 36.1% |
| CCC(CC)C(=O)N1CCN(c2ccccc2)CC1 | inconclusive: 54.8% |
| COC(=O)c1ccc(C2C(C(C)=O)=C(O)C(=O)N2CCO)cc1 (stereo not drawn) | inconclusive: 41% |
| O=C(CSc1nnc(-c2ccc(Cl)s2)o1)N1CCCc2ccccc21 | inconclusive: 42.5% |
| N#CCC1c2ccccc2CCN1C(=O)Nc1ccc(Cl)cc1 (stereo not drawn) | inconclusive: 41.9% |
| N=C1C(c2ccccc2)=C(O)C2CCc3ccccc3N12 (stereo not drawn) | inconclusive: 34.1% |
| Cc1nc(C)c(C(=O)O)c(-c2cccs2)c1C(=O)O | inconclusive: 34.5% |
| CC/C(=C/c1sc2ccccc2[n+]1CC)SC | inconclusive: 45.3% |
| COc1ccc(NC(=O)CN(c2cccc(F)c2)S(C)(=O)=O)cc1OC | inconclusive: 47.2% |
| O=C(C1CC1)N(Cc1nc2ccccc2c(=O)[nH]1)Cc1cccs1 | inconclusive: 38.6% |
| Cc1ccc(C)c2[nH]c(=O)c(CN(Cc3cccnc3)C(=S)NCc3ccco3)cc12 | inconclusive: 57.7% |
| Cc1ccc(Cc2cnc(N)s2)o1 | inconclusive: 58.1% |
| CCC(NC(=O)c1ccccc1NC(=O)c1ccccc1)C(=O)NNC(=O)CSc1nc2ccccc2o1 (stereo not drawn) | inconclusive: 53.4% |
| Cc1cc(C(=O)N/N=C/c2ccccc2)c(C)o1 | inconclusive: 33.5% |
| N#CC1=C(N)Oc2c(sc3ccccc23)C1c1ccco1 (stereo not drawn) | inconclusive: 56.4% |
| CCOC(=O)C1CCCN(c2c(NCC3CCCN3CC)c(=O)c2=O)C1 (stereo not drawn) | inactive: 1.77% |
| Cc1ccc(C2CC(c3ccc(Cl)cc3)n3nc(N)nc3N2)cc1 (stereo not drawn) | inconclusive: 38.7% |

Look-ups from the list.
Entry of N#CCC1c2ccccc2CCN1C(=O)Nc1ccc(Cl)cc1 (stereo not drawn) under inhibition: inconclusive: 41.9%
Entry of CCOC(=O)C1=C(C)OC(N)=C(C#N)C1c1cc2c(cc1[N+](=O)[O-])OCO2 (stereo not drawn) under inhibition: inconclusive: 49.1%
Entry of CCN(CC)S(=O)(=O)c1cc(C(=O)OCC(=O)NC(=O)c2cccn2C)ccc1C under inhibition: inconclusive: 36.1%

Remaining list, next part

| SMILES | inhibition |
| --- | --- |
| O=C1CC(c2ccc(O)cc2)Oc2cc(O)cc(O)c21 (stereo not drawn) | inactive: 10.3% |
| CC1CN(S(=O)(=O)c2cccc(C(=O)OCC(=O)c3cccs3)c2)CC(C)O1 (stereo not drawn) | inconclusive: 33.5% |
| CC1=CC(C)(C)Nc2ccc(OC(=O)CN3C(=O)CCC3=O)cc21 | inconclusive: 48.5% |
| OCCN(CCO)CC(O)COCCC12CC3CC(CC(C3)C1)C2 (stereo not drawn) | inconclusive: 36.4% |
| COc1cc(/C=C/C(=O)OCC(=O)NCC2CCCCC2)ccc1O | inactive: -4.25% |
| CCN(c1ccccc1)S(=O)(=O)c1ccc(Oc2ccccc2)c(N)c1 | inactive: 2.08% |
| Cc1ccccc1CSCC(=O)NC(=O)NCc1ccco1 | inconclusive: 34.5% |
| CC(C)[C@H](NC(N)=O)C(=O)NCCc1ccc(Cl)cc1 | inconclusive: 34% |
| CCn1c(SCC(=O)N2CCCC2)nc2c1c(=O)n(C)c(=O)n2C | inconclusive: 36.3% |
| COCCn1c(C)cc(C(=O)CSc2nc3nc(C)cc(C)n3n2)c1C | inconclusive: 41.6% |
| Cc1sc2nc(CN3CCOCC3)nc(NCCc3ccccc3)c2c1C | inconclusive: 41.1% |
| CSc1nnc([C@H](Cc2c[nH]c3ccccc23)NC(=O)OC(C)(C)C)o1 | inconclusive: 33.6% |
| COc1ccc(/C=N/NC(=O)CN2CCSCC2)cc1C | inconclusive: 34.6% |
| COc1ccc(NC(=O)C2CCCN2S(=O)(=O)c2ccc3c(c2)CCC(=O)N3)c(OC)c1 (stereo not drawn) | inconclusive: 50.1% |
| COc1ccc(-n2nc(C(=O)NCC(=O)Nc3ccccn3)c3ccccc3c2=O)cc1 | inconclusive: 52.8% |
| C[C@H](CO)NC(=O)[C@H](C)[C@H]1C[C@]1(C)[C@H](NC(=O)OCc1ccccc1)c1ccccc1 | inconclusive: 37.9% |
| COc1cc(-c2nc3oc4ccccc4c(=O)c3c(=O)n2Cc2ccco2)cc(OC)c1OC | inconclusive: 58.1% |
| CCC(=O)N1CC2(CC(c3cccc(NC(=O)CC(c4ccccc4)c4ccccc4)c3)=NO2)C[C@H]1C(N)=O (stereo partly drawn) | inactive: 4.04% |
| CCOc1ccc(-c2cnc(SCC(N)=O)nc2N)cc1 | inconclusive: 49.6% |
| Cn1cc(CN2CCCC(CO)(Cc3cccc(Cl)c3)C2)cn1 (stereo not drawn) | inconclusive: 38.2% |
| COc1ccc(OC)c([N+](=O)[O-])c1C(N)=O | inconclusive: 38.7% |
| Brc1cnc(N2CCCC2)nc1N1CCCCC1 | inconclusive: 54.9% |

Three entries from above, arranged by molar mass, rising:

| SMILES | inhibition |
| --- | --- |
| CCOc1ccc(-c2cnc(SCC(N)=O)nc2N)cc1 | inconclusive: 49.6% |
| Brc1cnc(N2CCCC2)nc1N1CCCCC1 | inconclusive: 54.9% |
| CCC(=O)N1CC2(CC(c3cccc(NC(=O)CC(c4ccccc4)c4ccccc4)c3)=NO2)C[C@H]1C(N)=O (stereo partly drawn) | inactive: 4.04% |

Remaining list, next part.

| SMILES | inhibition |
| --- | --- |
| CCOC(=O)CCNC(=O)Nc1ccc2nc(C)n(Cc3cccc(Cl)c3)c(=O)c2c1 | inconclusive: 39% |
| CCN(CC)c1ccc(/C=N/n2c(=S)[nH]nc(C)c2=O)cc1 | inconclusive: 36.6% |
| CCN(CC)C(=O)c1sc(NC(=O)C(Sc2ccccc2)c2ccccc2)c(C(=O)OC(C)C)c1C (stereo not drawn) | inactive: -1.62% |
| O=C1CCCN1CCCNS(=O)(=O)c1ccc(F)cc1F | inconclusive: 47.5% |
| Cc1ccc(SCC(=O)N(Cc2nc(-c3ccccc3)no2)C(C)C)cc1 | inconclusive: 24.6% |
| Cc1nc2cc(N)ccc2n1C1CCCCC1 | inconclusive: 57.5% |
| CCNC(=S)NNC(=O)c1csc2c1CCCC2 | inconclusive: 60% |
| S=c1[nH]nc(-c2ccc(Cl)cc2)n1/N=C/C=C/c1ccco1 | inconclusive: 64.7% |
| NS(=O)(=O)c1ccc(NC(=O)COC(=O)/C(=C/c2cccs2)c2cccs2)cc1 | inconclusive: 54.1% |
| C=CCN1C(=O)/C(=C2/C(=O)N(CC(=O)O)c3ccccc32)S/C1=N/c1nccs1 | inconclusive: 41.4% |
| Cc1ccc(S(=O)(=O)N(C)C)cc1-n1c(SCC(=O)Nc2ccc(F)cc2Cl)nc2ccccc2c1=O | inconclusive: 54% |
| COc1ccc2c(c1)O/C(=C\c1ccco1)C2=O | inconclusive: 54.2% |
| COCCCNC(=O)C(C#N)c1nc2ccccc2nc1N1CCN(Cc2ccccc2)CC1 (stereo not drawn) | inconclusive: 41.9% |
| CCOc1cc(/C=C2\SC(=N)N(c3nonc3N)C2=O)ccc1OCC(N)=O | inconclusive: 41% |
| CCc1nnc(NC(=O)CSc2nnc(-c3ccoc3C)n2-c2ccccc2)s1 | inconclusive: 50.2% |
| Cc1ccc(OCC(=O)Nc2ccc(S(=O)(=O)N3CCN(C)CC3)cc2)cc1 | inconclusive: 33.6% |
| COc1ccc(NC(=O)N2CCC(n3cnc4ccccc43)CC2)cc1 | inconclusive: 49% |
| O=C(CCCn1c(=O)[nH]c2cc(Cl)ccc2c1=O)NCCCN1CCN(c2ccc(F)cc2)CC1 | inconclusive: 40.4% |
| CN(C)S(=O)(=O)Oc1ccsc1C(=O)Nc1ccc(Cl)c(Cl)c1 | inconclusive: 54.1% |
| O=C1N/C(=C/c2ccc(N3CCCC3)cc2)C(=O)N1c1ccccc1 | inconclusive: 36.2% |
| COc1ccc(CC(=O)OC(C)CN2CCCC2)cc1 (stereo not drawn) | inconclusive: 60.4% |
| CC(=O)NC1=NC(=O)/C(=C/c2cc(C)n(-c3ccc(NC(C)=O)cc3)c2C)S1 | inconclusive: 48.6% |

| SMILES | inhibition |
| --- | --- |
| Cc1nc(CC(=O)Nc2nccs2)cs1 | inactive: -1.06% |
| CN(C)S(=O)(=O)c1cccc(-c2cn3cccnc3n2)c1 | inconclusive: 35.9% |
| Nc1ccc(Oc2ccc([N+](=O)[O-])cc2[N+](=O)[O-])cc1 | inconclusive: 33% |
| CN(C)c1nc(-c2ccccn2)nnc1-c1ccccc1 | inconclusive: 39% |
| O=C1NC2(CCCCC2)C(=O)N1Cc1cc(=O)n2ccsc2n1 | inactive: -0.24% |
| c1cc(CNc2ccc(N3CCOCC3)cc2)ccn1 | inconclusive: 60.7% |
| CCN(CC)C(=O)CSc1nnc2nnc3cc(Cl)ccc3n12 | inconclusive: 36.5% |
| COc1cc(C2C3=C(Nc4ncnn42)c2ccccc2CC3)cc(OC)c1OC (stereo not drawn) | inconclusive: 34% |
| Cc1ccc(Oc2ccccc2/C=C/C(=O)O)cc1 | inactive: 7.01% |
| O=S(=O)(Nc1nc2c(s1)CCCC2)c1ccc(Br)cc1 | inconclusive: 37.9% |
| COc1cccc(NC(=O)CN(C)C(=O)/C=C/c2cn(Cc3ccccc3)nc2-c2cccnc2)c1 | inactive: -9.6% |
| Cc1ccc2[nH]c(=O)c3cc(C(=O)NCC4CCCO4)sc3c2c1 (stereo not drawn) | inconclusive: 41.3% |
| CCOC(=O)Cc1cc(=O)c2c(=O)n(-c3ccccc3)[nH]c2[nH]1 | inconclusive: 54.1% |
| CCOc1ccc(N(CC(=O)Nc2ccccc2C)S(=O)(=O)c2c(C)noc2C)cc1 | inconclusive: 40.2% |
| O=C(Nc1ccccc1)c1ccccc1N=Cc1ccccc1O | inactive: -0.3% |
| CCC(c1n[nH]c(=S)n1-c1ccccc1)N(C)C (stereo not drawn) | inconclusive: 34.5% |
| CC(C)(CO)CN1CCC(n2nccc2NC(=O)C2CCCC2)CC1 | inactive: -9.4% |
| Fc1ccccc1CSc1nc2ncc(Br)cc2[nH]1 | inconclusive: 37% |
| COc1ccccc1/C=N/NC(=O)c1ccc(=O)n(C)c1 | inconclusive: 47.6% |
| COc1ccc2oc(=O)c(C(=O)N3CCN(c4ccccc4C)CC3)cc2c1 | inconclusive: 53.3% |
| CCOC(=O)C1=C(c2ccccc2)N=c2s/c(=C\c3cccc(O)c3)c(=O)n2C1c1cccs1 (stereo not drawn) | inactive: -2.23% and inactive: -5.42% |
| CC(/C=C/c1ccco1)=N\NC(=O)CNc1cccc(C)c1 | inconclusive: 62.1% |

— PubChem BioAssay AID1117319 (Southern Research Institute, 2015)
